This assay has as its system BDF1 mice, P388 leukemia ip, median survival T/C. The assay is described as follows: NCI In Vivo Anticancer Drug Screen. Data for tumor model P388 Leukemia (intraperitoneal) in B6D2F1 (BDF1) mice. The following applies: T/C endpoint: median survival time, higher T/C = longer survival. Summed up: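 Survival ratio, drug arm over vehicle arm, in mice with a transplanted tumour.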

The mark [1] stands for this setting: dose: 100.0 mg/kg/injection, schedule: Q04DX003 (ip), vehicle: saline with Tween-80.
Setting [2] is: dose: 200.0 mg/kg/injection, schedule: Q04DX003 (ip), vehicle: saline with Tween-80.
[3] abbreviates: dose: 12.5 mg/kg/injection, schedule: Q01DX009 (ip), vehicle: saline.

The list shows only some results of the screen, not a fair sample: its compounds were picked by chemical class. Not every dose and run of a compound is shown. T/C is the treated group as % of the vehicle group. For survival time, this PubChem deposit counts one and a half times the control or more as active, and values a quarter to a half above the control carry no call in these data; other NCI protocols may use other cut-offs. Some entries show no survivor count and are marked so; the dose need not have been tolerated. Schedules are NCI's codes, taken here to give the interval after Q, in days (D) or hours (H), and the number of doses after X. Some doses were run more than once; the values are given in rising order.

On to `N#CC(C#N)=Cc1ccc(N(CCCl)CCCl)cc1`, for which the T/C runs as follows: under setting [1], 118 % of control [survivor count not shown]; under setting [2], 131 % of control [survivor count not shown]; (dose: 264.0 mg/kg/injection, schedule: Q04DX003 (ip), vehicle: saline with Tween-80) 120 % of control [survivor count not shown]; (dose: 400.0 mg/kg/injection, schedule: Q04DX003 (ip), vehicle: saline with Tween-80) 116 [survivor count not shown] and 222 % of control [survivor count not shown]; (dose: 600.0 mg/kg/injection, schedule: Q04DX003 (ip), vehicle: saline with Tween-80) 137 % of control [survivor count not shown].
With `Cc1ccc(NC2(C(N)=O)CCNCC2)cc1`, the T/C is, setting by setting: (dose: 25.0 mg/kg/injection, schedule: Q04DX003 (ip), vehicle: saline) 96 % of control [survivor count not shown]; (dose: 50.0 mg/kg/injection, schedule: Q04DX003 (ip), vehicle: saline) 92 % of control [survivor count not shown]; (dose: 100.0 mg/kg/injection, schedule: Q04DX003 (ip), vehicle: saline) 104 % of control [survivor count not shown].
Take `O=c1[nH]cc(CN(CCCl)CCCl)c(=O)[nH]1`: the T/C reads like this: (dose: 0.25 mg/kg/injection, schedule: Q01DX009 (ip), vehicle: saline) 190 % of control [survivor count not shown]; (dose: 0.5 mg/kg/injection, schedule: Q01DX009 (ip), vehicle: saline) 218 % of control [survivor count not shown].
`Cc1ccc(CN(CCCl)CCCl)cc1C`: the T/C was 92 % of control [survivor count not shown] (dose: 0.44 mg/kg/injection, schedule: Q01DX009 (ip), vehicle: saline); 100 % of control [survivor count not shown] (dose: 0.66 mg/kg/injection, schedule: Q01DX009 (ip), vehicle: saline); 117 % of control [survivor count not shown] (dose: 1.0 mg/kg/injection, schedule: Q01DX009 (ip), vehicle: saline); 142 % of control [survivor count not shown] (dose: 1.5 mg/kg/injection, schedule: Q01DX009 (ip), vehicle: saline); 116 % of control [survivor count not shown] (dose: 1.78 mg/kg/injection, schedule: Q04DX003 (ip), vehicle: saline); 137 % of control [survivor count not shown] (dose: 2.66 mg/kg/injection, schedule: Q04DX003 (ip), vehicle: saline). The T/C runs as follows: (dose: 3.3 mg/kg/injection, schedule: Q01DX009 (ip), vehicle: saline) 154 % of control [survivor count not shown]; (dose: 4.0 mg/kg/injection, schedule: Q04DX003 (ip), vehicle: saline) 133 % of control [survivor count not shown]; (dose: 4.4 mg/kg/injection, schedule: Q04DX003 (ip), vehicle: saline) 172 % of control [survivor count not shown]; (dose: 5.0 mg/kg/injection, schedule: Q01DX009 (ip), vehicle: saline) 159 % of control [survivor count not shown]; (dose: 6.0 mg/kg/injection, schedule: Q04DX003 (ip), vehicle: saline) 137 % of control [survivor count not shown]; (dose: 6.25 mg/kg/injection, schedule: Q04DX003 (ip), vehicle: saline) 131 % of control [survivor count not shown]. Also, the T/C by setting is: (dose: 6.6 mg/kg/injection, schedule: Q04DX003 (ip), vehicle: saline) 154 % of control [survivor count not shown]; (dose: 7.5 mg/kg/injection, schedule: Q01DX009 (ip), vehicle: saline) 177 % of control [survivor count not shown]; (dose: 10.0 mg/kg/injection, schedule: Q04DX003 (ip), vehicle: saline) 159 % of control [survivor count not shown]; (dose: 11.3 mg/kg/injection, schedule: Q01DX009 (ip), vehicle: saline) 204 % of control [survivor count not shown]; (dose: 12.5 mg/kg/injection, schedule: Q04DX003 (ip), vehicle: saline) 154 % of control [survivor count not shown]; (dose: 15.0 mg/kg/injection, schedule: Q04DX003 (ip), vehicle: saline) 181 % of control [survivor count not shown].
As to `CCCCOc1ccc(N(CCCl)CCCl)cc1`, the T/C is, setting by setting: (dose: 6.25 mg/kg/injection, schedule: Q01DX009 (ip), vehicle: saline with Tween-80) 129 % of control [survivor count not shown]; (dose: 6.25 mg/kg/injection, schedule: Q01DX009 (ip), vehicle: saline) 95 % of control [survivor count not shown]; (dose: 12.5 mg/kg/injection, schedule: Q01DX009 (ip), vehicle: saline with Tween-80) 104 % of control [survivor count not shown]; under setting [3], 120 % of control [survivor count not shown]; (dose: 16.0 mg/kg/injection, schedule: Q01DX009 (ip), vehicle: saline) 104 % of control [survivor count not shown]; (dose: 25.0 mg/kg/injection, schedule: Q01DX009 (ip), vehicle: saline with Tween-80) 170 % of control [survivor count not shown]. For the same compound, the T/C is, setting by setting: (dose: 25.0 mg/kg/injection, schedule: Q01DX009 (ip), vehicle: saline) 145 [survivor count not shown] and 208 % of control [survivor count not shown]; (dose: 35.0 mg/kg/injection, schedule: Q01DX009 (ip), vehicle: saline) 204 % of control [survivor count not shown].
For `CC(Cl)CNCC(C)Cl` (stereo not drawn), the T/C runs as follows: under setting [3], 105 % of control [survivor count not shown]; (dose: 50.0 mg/kg/injection, schedule: Q01DX009 (ip), vehicle: saline) 90 % of control [survivor count not shown].
As for `O=C(O)C(=O)Cc1ccc(N(CCCl)CCCl)cc1`, the T/C is, setting by setting: (dose: 33.0 mg/kg/injection, schedule: Q04DX003 (ip), vehicle: saline with Tween-80) 168 [survivor count not shown] and 183 % of control [survivor count not shown]; (dose: 50.0 mg/kg/injection, schedule: Q04DX003 (ip), vehicle: saline with Tween-80) 183 [survivor count not shown] and 204 % of control [survivor count not shown]; (dose: 75.0 mg/kg/injection, schedule: Q04DX003 (ip), vehicle: saline with Tween-80) 177 [survivor count not shown] and 204 % of control [survivor count not shown]; under setting [1], 200 % of control [survivor count not shown]; under setting [2], 272 % of control [survivor count not shown].

These data come from PubChem BioAssay AID328 (DTP/NCI, 2004).
